# From article PMC12284848, “Safe and Efficient Intracellular Release of SN38 via Lysosomal-Responsive SN38‑G Loaded Liposomes” (ACS Applied Bio Materials, 2025)
# Experiment: Drug loading into calcium acetate liposomes (HPLC and Bartlett's phospholipid assay)
# Conditions: for loading and conversion (encapsulation efficiency), % of the initial amounts: 65% starting drug-to-phospholipids molar ratio; for loading and conversion (encapsulation efficiency), % of the initial amounts / final drug-to-phospholipids ratio: 70 °C, 60 min; for final drug-to-phospholipids ratio: molar ratio, ester loaded at 65%
smiles,measurement,setting,value
"CCc1c2c(nc3ccc(O)cc13)-c1cc3c(c(=O)n1C2)COC(=O)[C@]3(O)CC [SN38, 7-ethyl-10-hydroxycamptothecin]",drug-to-phospholipids molar ratio,parental SN38 loaded with 20% DMSO,10.01%
CCOC(=O)[C@H]1O[C@@H](Oc2ccc3nc4c(c(CC)c3c2)Cn2c-4cc3c(c2=O)COC(=O)[C@]3(O)CC)[C@H](O)[C@@H](O)[C@@H]1O [SN38-G^eth],"loading and conversion (encapsulation efficiency), % of the initial amounts",,94.9%
same,final drug-to-phospholipids ratio,,61.7%
CCc1c2c(nc3ccc(O[C@@H]4O[C@H](C(=O)OC)[C@@H](O)[C@H](O)[C@H]4O)cc13)-c1cc3c(c(=O)n1C2)COC(=O)[C@]3(O)CC [SN38-G^met],"loading and conversion (encapsulation efficiency), % of the initial amounts",,89.9%
same,final drug-to-phospholipids ratio,,58.6%
